# Test results as given in PubChem BioAssay AID540276 (National Center for Advancing Translational Sciences (NCATS), 2011).
# Out of some 300,000 compounds screened, about 5,400 (1.8%) were called active. This list was built around the results that the source calls inconclusive (neither active nor inactive); the mix of calls is not that of the screen. Calls follow the shape of the full dose curve; tested in HEK293 cells. Potencies of inconclusive entries are doubtful fits and often do not repeat.
# Experiment: qHTS for inhibitors of binding or entry into cells for Marburg Virus
# Conditions: Marburg virus pseudotyped entry inhibition, cell reporter; series mostly up to 37.8 µM
# Potency is read from the fitted curve at half-maximal effect.
row,SMILES,Potency
1,CCc1sc(C(=O)Nc2nc(C)cs2)cc1C,"inconclusive: 10 µM [inhibitor, partial curve, poor fit]"
2,O=c1cc(-c2ccncc2)oc2c1ccc1ccccc12,"inconclusive: 17.8 µM [inhibitor, partial curve, poor fit]"
3,Cc1cccc(NC(=O)C(=O)NCc2ccc3c(c2)OCO3)c1C,"inconclusive: 0.891 µM [inhibitor, partial curve, poor fit]"
4,COc1ccc(OC)c(N=Nc2c(O)c3ccccc3[nH]c2=O)c1,"inconclusive: 12.6 µM [inhibitor, single point]"
5,CC(=C/c1ccccc1)/C=N/NC(=O)c1cc(C)oc1C,"inconclusive: 11.2 µM [inhibitor, partial curve, poor fit]"
6,Clc1ccc(-[n+]2c(-c3cccc(Br)c3)[nH]c3nc4ccccc4nc32)cc1,"inconclusive: 1.26 µM [inhibitor, partial curve, poor fit]"
7,CCNC(=O)c1c(NC(=O)Cc2coc3ccc(CC)cc23)sc2c1CCCC2,"inconclusive: 6.31 µM [activator, single point]"
8,CCOC(CNC(=O)c1cc2c(=O)n(CC)c3ccccc3c2s1)OCC,"inconclusive: 7.08 µM [activator, full curve]"
9,CCN(CC(=O)Nc1c(F)cccc1F)C(=O)c1cccnc1Sc1ccccc1,inactive
10,COc1ccc(-c2cc(C(=O)Nc3sc4c(c3C(N)=O)CCCC4)no2)cc1,"inconclusive: 7.94 µM [activator, partial curve, poor fit]"
11,O=[N+]([O-])c1ccc2nc(N3CCNCC3)ccc2c1,"inconclusive: 35.5 µM [inhibitor, single point]"
12,CN(C)c1ccc(CN(C(=O)C2COc3ccccc3O2)C2CCS(=O)(=O)C2)cc1 (stereo not drawn),inactive
13,COc1ccc(/C=N/NC(=O)CNc2ccc(Br)cc2)c(C(=O)O)c1OC,inactive
14,COc1ccc2[nH]c3c(NCCCN4CCCC4=O)ncnc3c2c1,inactive
15,Cc1cc2nc(SC(C)C(=O)O)[nH]c2cc1C (stereo not drawn),"inconclusive: 7.94 µM [activator, partial curve, poor fit]"
16,CCC(=O)N(CCCN(C)C)c1nc(-c2cc(OC)ccc2OC)cs1,"inconclusive: 29.1 µM [inhibitor, single point]"
17,N/C(=N\OC(=O)COc1ccc(Cl)cc1)c1cccnc1,"inconclusive: 11.2 µM [activator, single point]"
18,CCOc1ccccc1NC(=O)CSc1ccccc1,"inconclusive: 6.51 µM [inhibitor, single point]"

# Molecules above that contain bromine (two):
row,SMILES,Potency
6,Clc1ccc(-[n+]2c(-c3cccc(Br)c3)[nH]c3nc4ccccc4nc32)cc1,"inconclusive: 1.26 µM [inhibitor, partial curve, poor fit]"
13,COc1ccc(/C=N/NC(=O)CNc2ccc(Br)cc2)c(C(=O)O)c1OC,inactive
